Results deposited as PubChem BioAssay AID1259254 (NCATS, 2017)
Assay: 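Genome-wide screen for genes that prevent DNA re-replication in cancer cells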 (primary screen). System: human HCT116 colorectal cancer cells. Knock-down reagent: single siRNA against human genes. Timing: 3 days. Read-out: 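Imaged Hoechst DNA stain sorts each cell into a cycle phase by DNA amount; per plate, G2 fraction set to 0% for non-targeting and 100% for GMNN siRNA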. Scale: G2 robust z-score: higher = more G2 cells, more excess DNA replication. Rule for the call: 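Active siRNAs have a G2 robust z of 5 or more median absolute deviations over the median, which in these data means about 38% or higher of GMNN control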.
Here is an unselected part of about 59,000 reagents tested. About 1,550 of all reagents (2.6%) were called active. 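G2 share is only a proxy for re-replication; each gene was hit by three separate siRNAs, and active genes were retested.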 The numbers tell different reagents against one gene apart. Not all columns of the deposit are shown. The record does not give: the amount of reagent.

| gene | reagent | G2 robust z-score | Call |
| --- | --- | --- | --- |
| MROH7 (GeneID 374977) | 1 | -0.716 | inactive |
| MROH7 (GeneID 374977) | 2 | -0.175 | inactive |
| MROH7 (GeneID 374977) | 3 | 2.34 | inactive |
| ZNF608 (GeneID 57507) | 1 | -0.778 | inactive |
| ZNF608 (GeneID 57507) | 2 | -0.494 | inactive |
| ZNF608 (GeneID 57507) | 3 | 0.299 | inactive |
| TGFBI (GeneID 7045) | 1 | 0.267 | inactive |
| TGFBI (GeneID 7045) | 2 | -0.246 | inactive |
| TGFBI (GeneID 7045) | 3 | 0.106 | inactive |
| NNMT (GeneID 4837) | 1 | 0.317 | inactive |
| NNMT (GeneID 4837) | 2 | -1.1 | inactive |
| NNMT (GeneID 4837) | 3 | -0.0768 | inactive |
| UNCX (GeneID 340260) | 1 | 0.347 | inactive |
| UNCX (GeneID 340260) | 2 | -1.22 | inactive |
| UNCX (GeneID 340260) | 3 | 1.44 | inactive |
| ATP1B1 (GeneID 481) | 1 | -0.338 | inactive |
| ATP1B1 (GeneID 481) | 2 | -1.54 | inactive |
| ATP1B1 (GeneID 481) | 3 | 0.11 | inactive |
| MGRN1 (GeneID 23295) | 1 | 2.17 | inactive |
| MGRN1 (GeneID 23295) | 2 | 2.4 | inactive |
| MGRN1 (GeneID 23295) | 3 | -0.491 | inactive |
| NASP (GeneID 4678) | 1 | 4.22 | inactive |
| NASP (GeneID 4678) | 2 | -0.431 | inactive |
| NASP (GeneID 4678) | 3 | -0.858 | inactive |
| FAHD2B (GeneID 151313) | 1 | 0.199 | inactive |
| FAHD2B (GeneID 151313) | 2 | -0.552 | inactive |
| FAHD2B (GeneID 151313) | 3 | 1.68 | inactive |
| FXYD2 (GeneID 486) | 1 | 0.503 | inactive |
| FXYD2 (GeneID 486) | 2 | -0.267 | inactive |
| FXYD2 (GeneID 486) | 3 | 5.36 | active |
| TPM3 (GeneID 7170) | 1 | 2.44 | inactive |
| TPM3 (GeneID 7170) | 2 | 0.313 | inactive |
| TPM3 (GeneID 7170) | 3 | 1.07 | inactive |
| CCNA1 (GeneID 8900) | 1 | -1.74 | inactive |
| CCNA1 (GeneID 8900) | 2 | -0.869 | inactive |
| CCNA1 (GeneID 8900) | 3 | -0.475 | inactive |
| SNRPG (GeneID 6637) | 1 | 0.101 | inactive |
| SNRPG (GeneID 6637) | 2 | 3.62 | inactive |
| SNRPG (GeneID 6637) | 3 | 2.08 | inactive |
| URB1-DT (GeneID 84996) | 1 | -0.472 | inactive |
| URB1-DT (GeneID 84996) | 2 | -0.257 | inactive |
| URB1-DT (GeneID 84996) | 3 | 0.00528 | inactive |
| RASSF7 (GeneID 8045) | 1 | -0.632 | inactive |
| RASSF7 (GeneID 8045) | 2 | -0.658 | inactive |
| RASSF7 (GeneID 8045) | 3 | -0.576 | inactive |
| KCTD21 (GeneID 283219) | 1 | -0.589 | inactive |
| KCTD21 (GeneID 283219) | 2 | 0.274 | inactive |
| KCTD21 (GeneID 283219) | 3 | 0.0622 | inactive |
| GPX7 (GeneID 2882) | 1 | -0.837 | inactive |
| GPX7 (GeneID 2882) | 2 | -0.388 | inactive |
| GPX7 (GeneID 2882) | 3 | -0.976 | inactive |
| LTA4H (GeneID 4048) | 1 | 2.26 | inactive |
| LTA4H (GeneID 4048) | 2 | -1.22 | inactive |
| LTA4H (GeneID 4048) | 3 | -0.775 | inactive |
| SYCP3 (GeneID 50511) | 1 | 2.1 | inactive |
| SYCP3 (GeneID 50511) | 2 | 2.16 | inactive |
| SYCP3 (GeneID 50511) | 3 | -0.152 | inactive |
| FCRL4 (GeneID 83417) | 1 | 0.234 | inactive |
| FCRL4 (GeneID 83417) | 2 | 0.339 | inactive |
| FCRL4 (GeneID 83417) | 3 | 0.173 | inactive |
| MSH3 (GeneID 4437) | 1 | -0.212 | inactive |
| MSH3 (GeneID 4437) | 2 | -1.3 | inactive |
| MSH3 (GeneID 4437) | 3 | -0.612 | inactive |
| EMC6 (GeneID 83460) | 1 | -0.715 | inactive |
| EMC6 (GeneID 83460) | 2 | 0.845 | inactive |
| EMC6 (GeneID 83460) | 3 | 0.252 | inactive |
| FAM240C (GeneID 285095) | 1 | -0.714 | inactive |
| FAM240C (GeneID 285095) | 2 | 0.654 | inactive |
| FAM240C (GeneID 285095) | 3 | -0.184 | inactive |

8 entries from above, set out differently.
{"gene": "TPM3 (GeneID 7170)", "reagent": 1, "G2 robust z-score": 2.44, "Call": "inactive"}
{"gene": "TPM3 (GeneID 7170)", "reagent": 2, "G2 robust z-score": 0.313, "Call": "inactive"}
{"gene": "TPM3 (GeneID 7170)", "reagent": 3, "G2 robust z-score": 1.07, "Call": "inactive"}
{"gene": "CCNA1 (GeneID 8900)", "reagent": 1, "G2 robust z-score": -1.74, "Call": "inactive"}
{"gene": "CCNA1 (GeneID 8900)", "reagent": 2, "G2 robust z-score": -0.869, "Call": "inactive"}
{"gene": "CCNA1 (GeneID 8900)", "reagent": 3, "G2 robust z-score": -0.475, "Call": "inactive"}
{"gene": "SNRPG (GeneID 6637)", "reagent": 1, "G2 robust z-score": 0.101, "Call": "inactive"}
{"gene": "SNRPG (GeneID 6637)", "reagent": 2, "G2 robust z-score": 3.62, "Call": "inactive"}
